Laboratory results reported in the supplement of paper PMC10849652.
The other results are listed elsewhere or left out.

Sequences of proteins named here, by UniProt entry; tags and fusion partners are left off. A change or cut given only in a name is not applied to a line headed by its entry.
UniProt Q9P2E5: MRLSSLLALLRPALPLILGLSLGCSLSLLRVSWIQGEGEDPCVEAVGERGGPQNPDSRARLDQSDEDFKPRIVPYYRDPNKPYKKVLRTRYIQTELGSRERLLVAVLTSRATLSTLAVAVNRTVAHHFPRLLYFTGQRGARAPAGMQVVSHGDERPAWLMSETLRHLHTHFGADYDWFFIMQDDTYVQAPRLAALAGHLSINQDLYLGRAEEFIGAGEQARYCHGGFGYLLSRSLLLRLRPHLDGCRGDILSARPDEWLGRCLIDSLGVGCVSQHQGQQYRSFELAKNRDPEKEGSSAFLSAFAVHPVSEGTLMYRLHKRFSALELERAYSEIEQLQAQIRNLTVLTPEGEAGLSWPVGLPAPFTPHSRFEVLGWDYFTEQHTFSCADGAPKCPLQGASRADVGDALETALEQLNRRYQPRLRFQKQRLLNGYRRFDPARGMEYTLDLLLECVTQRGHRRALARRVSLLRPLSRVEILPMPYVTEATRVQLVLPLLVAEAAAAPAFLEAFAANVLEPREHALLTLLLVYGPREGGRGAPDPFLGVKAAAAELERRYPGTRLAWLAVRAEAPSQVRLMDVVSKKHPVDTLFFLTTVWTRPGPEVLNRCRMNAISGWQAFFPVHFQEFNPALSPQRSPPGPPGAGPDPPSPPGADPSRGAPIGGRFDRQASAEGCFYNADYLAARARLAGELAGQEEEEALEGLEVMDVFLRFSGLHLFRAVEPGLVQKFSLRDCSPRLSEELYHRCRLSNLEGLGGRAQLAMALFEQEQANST
UniProt Q9H9E3: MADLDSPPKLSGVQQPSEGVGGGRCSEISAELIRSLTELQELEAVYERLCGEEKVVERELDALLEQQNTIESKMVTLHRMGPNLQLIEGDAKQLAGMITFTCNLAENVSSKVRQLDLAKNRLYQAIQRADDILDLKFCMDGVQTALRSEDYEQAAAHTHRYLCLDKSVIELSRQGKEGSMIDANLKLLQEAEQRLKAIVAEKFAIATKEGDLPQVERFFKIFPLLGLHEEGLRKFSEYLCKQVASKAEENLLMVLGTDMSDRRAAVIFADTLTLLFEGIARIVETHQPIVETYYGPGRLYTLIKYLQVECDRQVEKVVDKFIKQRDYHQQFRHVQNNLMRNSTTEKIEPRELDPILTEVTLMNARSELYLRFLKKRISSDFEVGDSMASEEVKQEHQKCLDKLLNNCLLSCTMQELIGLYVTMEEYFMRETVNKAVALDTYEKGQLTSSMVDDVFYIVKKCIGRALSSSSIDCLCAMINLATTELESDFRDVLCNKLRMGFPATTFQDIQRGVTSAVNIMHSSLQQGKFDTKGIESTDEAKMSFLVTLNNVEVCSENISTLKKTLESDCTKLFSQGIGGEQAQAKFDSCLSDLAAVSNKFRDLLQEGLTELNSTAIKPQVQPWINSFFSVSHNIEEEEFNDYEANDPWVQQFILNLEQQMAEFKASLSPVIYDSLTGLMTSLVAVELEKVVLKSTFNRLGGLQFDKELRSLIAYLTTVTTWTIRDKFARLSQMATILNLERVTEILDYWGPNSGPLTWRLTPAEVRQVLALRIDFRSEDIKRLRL
UniProt P38432, whole entry, looked up: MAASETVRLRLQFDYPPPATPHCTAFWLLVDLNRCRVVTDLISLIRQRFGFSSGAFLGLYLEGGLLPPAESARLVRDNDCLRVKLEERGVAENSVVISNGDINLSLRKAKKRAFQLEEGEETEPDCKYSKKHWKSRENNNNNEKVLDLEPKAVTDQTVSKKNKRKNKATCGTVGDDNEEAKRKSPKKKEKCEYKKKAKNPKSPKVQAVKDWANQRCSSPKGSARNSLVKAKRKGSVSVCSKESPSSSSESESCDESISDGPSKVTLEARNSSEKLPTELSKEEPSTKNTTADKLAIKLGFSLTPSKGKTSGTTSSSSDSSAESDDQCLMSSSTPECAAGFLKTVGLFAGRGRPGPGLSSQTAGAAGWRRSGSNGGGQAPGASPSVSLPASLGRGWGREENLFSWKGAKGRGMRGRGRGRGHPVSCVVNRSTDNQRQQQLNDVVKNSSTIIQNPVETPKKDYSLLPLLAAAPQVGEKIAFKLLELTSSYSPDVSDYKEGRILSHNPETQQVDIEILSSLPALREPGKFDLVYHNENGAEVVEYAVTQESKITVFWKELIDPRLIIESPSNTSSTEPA
UniProt P05452, whole entry, looked up: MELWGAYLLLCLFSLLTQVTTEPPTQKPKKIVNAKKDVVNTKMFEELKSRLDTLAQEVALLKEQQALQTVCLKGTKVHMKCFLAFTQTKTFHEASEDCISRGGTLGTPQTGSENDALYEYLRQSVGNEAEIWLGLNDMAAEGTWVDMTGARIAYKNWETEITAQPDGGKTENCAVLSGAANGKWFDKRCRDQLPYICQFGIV
UniProt O75503: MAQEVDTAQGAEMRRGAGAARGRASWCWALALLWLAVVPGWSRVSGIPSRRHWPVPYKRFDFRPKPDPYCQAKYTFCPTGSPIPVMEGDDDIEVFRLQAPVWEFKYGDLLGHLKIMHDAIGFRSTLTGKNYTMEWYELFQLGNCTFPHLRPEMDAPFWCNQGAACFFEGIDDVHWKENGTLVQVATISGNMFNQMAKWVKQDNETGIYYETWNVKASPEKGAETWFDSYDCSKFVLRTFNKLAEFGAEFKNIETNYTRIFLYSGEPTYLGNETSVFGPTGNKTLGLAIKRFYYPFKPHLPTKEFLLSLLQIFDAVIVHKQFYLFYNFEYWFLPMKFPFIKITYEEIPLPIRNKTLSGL
UniProt Q9Y4C5: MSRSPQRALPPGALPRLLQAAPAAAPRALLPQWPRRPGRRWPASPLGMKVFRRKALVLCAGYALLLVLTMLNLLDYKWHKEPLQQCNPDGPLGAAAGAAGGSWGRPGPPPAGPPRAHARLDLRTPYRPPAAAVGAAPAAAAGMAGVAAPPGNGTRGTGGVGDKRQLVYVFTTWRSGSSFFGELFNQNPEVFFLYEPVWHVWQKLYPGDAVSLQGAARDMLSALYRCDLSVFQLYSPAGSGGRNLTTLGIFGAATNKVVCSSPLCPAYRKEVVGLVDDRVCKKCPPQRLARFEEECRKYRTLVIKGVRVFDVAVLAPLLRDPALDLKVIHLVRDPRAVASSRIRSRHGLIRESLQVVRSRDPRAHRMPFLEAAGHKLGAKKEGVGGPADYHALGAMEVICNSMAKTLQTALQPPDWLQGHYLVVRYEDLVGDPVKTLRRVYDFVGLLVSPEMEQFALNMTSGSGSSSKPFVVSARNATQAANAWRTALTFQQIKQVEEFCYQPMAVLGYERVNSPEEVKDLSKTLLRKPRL
UniProt P51911: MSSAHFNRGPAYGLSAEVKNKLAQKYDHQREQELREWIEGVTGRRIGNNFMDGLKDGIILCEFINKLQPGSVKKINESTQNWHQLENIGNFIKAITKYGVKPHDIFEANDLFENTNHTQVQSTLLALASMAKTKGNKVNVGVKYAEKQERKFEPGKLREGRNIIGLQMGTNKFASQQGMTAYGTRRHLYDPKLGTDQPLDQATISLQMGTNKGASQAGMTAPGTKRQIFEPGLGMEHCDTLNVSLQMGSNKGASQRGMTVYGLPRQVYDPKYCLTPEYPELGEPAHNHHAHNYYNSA
UniProt P30622: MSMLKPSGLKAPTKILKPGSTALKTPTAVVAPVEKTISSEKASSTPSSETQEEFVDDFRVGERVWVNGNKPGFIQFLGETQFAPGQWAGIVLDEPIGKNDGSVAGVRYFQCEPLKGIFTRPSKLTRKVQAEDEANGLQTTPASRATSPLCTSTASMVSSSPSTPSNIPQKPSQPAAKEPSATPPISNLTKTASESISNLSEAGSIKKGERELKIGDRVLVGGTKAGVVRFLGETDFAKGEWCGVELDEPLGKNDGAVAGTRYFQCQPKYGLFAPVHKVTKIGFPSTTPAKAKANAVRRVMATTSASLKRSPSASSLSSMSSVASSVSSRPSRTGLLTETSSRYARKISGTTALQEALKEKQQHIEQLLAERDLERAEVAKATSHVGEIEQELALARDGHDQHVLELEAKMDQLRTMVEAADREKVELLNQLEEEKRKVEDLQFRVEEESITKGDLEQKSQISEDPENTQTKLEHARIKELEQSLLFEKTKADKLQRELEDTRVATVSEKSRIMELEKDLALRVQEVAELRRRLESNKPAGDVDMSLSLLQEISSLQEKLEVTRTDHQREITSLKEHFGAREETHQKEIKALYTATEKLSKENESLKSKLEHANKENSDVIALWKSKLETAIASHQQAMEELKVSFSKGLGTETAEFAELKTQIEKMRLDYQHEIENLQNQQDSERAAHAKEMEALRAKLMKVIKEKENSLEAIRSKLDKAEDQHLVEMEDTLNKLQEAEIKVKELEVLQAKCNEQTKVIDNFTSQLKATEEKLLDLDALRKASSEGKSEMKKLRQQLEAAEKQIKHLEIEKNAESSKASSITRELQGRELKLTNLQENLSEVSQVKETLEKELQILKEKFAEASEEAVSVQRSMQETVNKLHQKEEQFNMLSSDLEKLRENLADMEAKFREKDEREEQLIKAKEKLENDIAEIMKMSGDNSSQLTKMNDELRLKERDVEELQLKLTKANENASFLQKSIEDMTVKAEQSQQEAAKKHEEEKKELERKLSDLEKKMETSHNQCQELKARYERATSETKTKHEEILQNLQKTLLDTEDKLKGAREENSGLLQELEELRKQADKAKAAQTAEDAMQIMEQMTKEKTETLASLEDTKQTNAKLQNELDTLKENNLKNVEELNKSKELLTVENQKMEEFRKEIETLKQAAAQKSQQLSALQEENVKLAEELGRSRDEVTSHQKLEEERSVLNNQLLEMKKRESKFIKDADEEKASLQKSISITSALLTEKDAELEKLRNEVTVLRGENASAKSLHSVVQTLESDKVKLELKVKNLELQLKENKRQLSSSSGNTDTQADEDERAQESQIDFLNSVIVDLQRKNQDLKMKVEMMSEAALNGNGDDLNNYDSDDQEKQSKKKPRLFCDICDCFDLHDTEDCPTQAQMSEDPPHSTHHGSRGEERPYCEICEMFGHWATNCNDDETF
UniProt Q8WTW3: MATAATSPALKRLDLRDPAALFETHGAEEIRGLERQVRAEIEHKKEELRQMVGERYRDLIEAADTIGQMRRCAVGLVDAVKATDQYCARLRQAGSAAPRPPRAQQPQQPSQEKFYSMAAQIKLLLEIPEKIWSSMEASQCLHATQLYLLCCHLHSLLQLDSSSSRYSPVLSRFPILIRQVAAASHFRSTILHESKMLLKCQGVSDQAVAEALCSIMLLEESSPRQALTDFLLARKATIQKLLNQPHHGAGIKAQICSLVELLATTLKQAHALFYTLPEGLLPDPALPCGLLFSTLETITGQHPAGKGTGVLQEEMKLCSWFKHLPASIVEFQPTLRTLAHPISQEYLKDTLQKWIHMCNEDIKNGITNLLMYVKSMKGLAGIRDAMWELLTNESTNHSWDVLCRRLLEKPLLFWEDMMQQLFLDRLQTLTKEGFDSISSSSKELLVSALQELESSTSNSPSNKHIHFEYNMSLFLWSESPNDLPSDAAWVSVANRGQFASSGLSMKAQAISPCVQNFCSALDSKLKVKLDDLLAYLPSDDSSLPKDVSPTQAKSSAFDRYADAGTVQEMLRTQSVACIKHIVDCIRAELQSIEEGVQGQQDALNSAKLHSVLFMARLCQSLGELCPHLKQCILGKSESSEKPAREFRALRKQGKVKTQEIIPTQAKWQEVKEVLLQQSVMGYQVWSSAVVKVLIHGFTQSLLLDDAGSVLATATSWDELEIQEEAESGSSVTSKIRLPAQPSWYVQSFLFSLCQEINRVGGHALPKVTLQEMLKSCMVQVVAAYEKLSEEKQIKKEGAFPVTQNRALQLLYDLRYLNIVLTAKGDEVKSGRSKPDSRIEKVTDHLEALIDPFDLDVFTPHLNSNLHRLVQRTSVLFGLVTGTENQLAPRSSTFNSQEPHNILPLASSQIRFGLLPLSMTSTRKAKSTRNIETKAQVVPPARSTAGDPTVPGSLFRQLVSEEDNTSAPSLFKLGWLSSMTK
UniProt Q9ULM6, whole entry, looked up: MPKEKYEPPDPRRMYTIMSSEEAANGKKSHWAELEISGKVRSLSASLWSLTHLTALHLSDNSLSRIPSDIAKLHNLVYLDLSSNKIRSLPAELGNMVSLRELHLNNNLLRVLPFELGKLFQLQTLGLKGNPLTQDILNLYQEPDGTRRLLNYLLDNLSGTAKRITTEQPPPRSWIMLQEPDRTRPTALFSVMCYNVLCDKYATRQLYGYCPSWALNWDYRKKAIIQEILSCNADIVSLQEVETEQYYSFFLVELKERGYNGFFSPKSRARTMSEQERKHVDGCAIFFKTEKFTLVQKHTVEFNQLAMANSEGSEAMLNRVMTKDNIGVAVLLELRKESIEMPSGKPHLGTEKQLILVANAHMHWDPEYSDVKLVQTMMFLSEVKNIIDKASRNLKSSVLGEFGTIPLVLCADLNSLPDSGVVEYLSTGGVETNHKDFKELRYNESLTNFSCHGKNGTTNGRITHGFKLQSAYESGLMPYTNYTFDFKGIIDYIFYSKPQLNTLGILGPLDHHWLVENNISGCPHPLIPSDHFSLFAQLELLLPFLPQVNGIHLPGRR

How the values were obtained:
Test in all cases: log2 fold change, soluble protein after heating vs DMSO (PISA); higher = thermal stabilisation; K562 cells, 10 uM, 30 min; active = over 0.2 and 3.5 SD of the protein, either way, in both replicates (recomputed)
[1] = compound: CC1=C(C=C(C=C1)NC(=O)C2=CC(=CC=C2)C(C)(C)C#N)NC3=CC4=C(C=C3)N=CN(C4=O)C
How it was run: (§1)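 Thermal stability values are relative to control samples and come from duplicates. They are expressed as log2 fold changes. For measurement, K562 cells (2×10^6 cells/mL) received 10 μM compound for 30 min, and aliquots were heated for 3 min over 48°C-58°C, pooled, and extracted at 4°C in PBS with 0.5% NP-40. Soluble protein, the supernatant after 21,000xg for 90 min, was quantified by TMTpro 16plex LC-MS/MS with equalised channel sums.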

[2] = compound: CC1=C(C=C(C=C1)NC(=O)C2=CC(=CC=C2)N(C)C)NC(=O)C3=CC=C(C=C3)O
How it was run: as §1

[3] = compound: CC1=CC=C(C=C1)SC2=C3C=C(SC3=CN=C2)C(=O)N
How it was run: as §1

[4] = compound: CCCCN(Cc1ccc(C(=O)NO)cc1)C(=O)Nc1ccccc1 [Nexturastat A]
How it was run: as §1

[5] = compound: CCCS(=O)(=O)Nc1ccc(F)c(C(=O)c2c[nH]c3ncc(-c4ccc(Cl)cc4)cc23)c1F [vemurafenib]
How it was run: as §1

[6] = compound: CCCS(=O)(=O)Nc1ccc(F)c(C(=O)c2c[nH]c3ncc(Cl)cc23)c1F
How it was run: as §1

[7] = compound: CCCc1cc(C)[nH]c(=O)c1CNC(=O)c1cc(-c2ccnc(N3CCN(C)CC3)c2)cc2c1cnn2C(C)C
How it was run: as §1

[8] = compound: CCN(CC)Cc1ccc2cc(COC(=O)Nc3ccc(C(=O)NO)cc3)ccc2c1 [givinostat]
How it was run: as §1

[9] = compound: CCN(CCCOc1ccc2c(Nc3cc(CC(=O)Nc4cccc(F)c4)[nH]n3)ncnc2c1)CCOP(=O)(O)O [barasertib]
How it was run: as §1

[10] = compound: CC[C@@H]1C(=O)N(C)c2cnc(Nc3ccc(C(=O)N[C@H]4CC[C@H](N5CCN(CC6CC6)CC5)CC4)cc3OC)nc2N1C(C)C [volasertib]
How it was run: as §1

[11] = compound: CC[C@H](C)N1C=C(C2=C(C=C(C=C21)C3=CN=C(C=C3)N4CCNCC4)C(=O)NCC5=C(C=C(NC5=O)C)C)C
How it was run: as §1

[12] = compound: CC[C@H](C)[C@@H](C(=O)N[C@@H]([C@@H](C)O)C(=O)N[C@@H](CC(C)C)C(=O)[C@]1(CO1)C)NC(=O)[C@H]([C@@H](C)CC)N(C)C(=O)C [epoxomicin]
How it was run: as §1

[13] = compound: CCn1c(C(=O)N(C2CC2)C2CC2)cc2c3c(ncn3C)c(Nc3cc(C)n(C)n3)nc21
How it was run: as §1

[14] = compound: CCn1cc(-c2ccnc3[nH]c(-c4cccc(CN(C)C)c4)cc23)c(-c2ccc(NC(=O)N(C)C)cc2)n1
How it was run: as §1

[15] = compound: CN(C)CC(=O)Nc1ccc2[nH]c(=O)c3ccccc3c2c1
How it was run: as §1

[16] = compound: CN(CCOC1=CC=C(C=C1)C[C@H]2C(=O)NC(=O)S2)C3=CC=CC=N3 (racemic) [rosiglitazone]
How it was run: as §1

[17] = compound: CN1C2=C(C3=C1C(=O)N(N=C3)CC4=CC(=CC=C4)N)SC(=C2)S(=O)C
How it was run: as §1

[18] = compound: CN1CCC(CNc2ccc3ncc(-c4cccc(OC(F)(F)F)c4)n3n2)CC1
How it was run: as §1

[19] = compound: CC1=NC(=CC=C1)C2=C(N=C(N2)C(C)(C)C)C3=CC4=NC=CN=C4C=C3
How it was run: as §1

[20] = compound: CC[C@@H]1C(=O)N(C)c2cnc(Nc3ccc(C(=O)NC4CCN(C)CC4)cc3OC)nc2N1C1CCCC1
How it was run: as §1

| Target | log2 fold change [1] | log2 fold change [2] | log2 fold change [3] | log2 fold change [4] | log2 fold change [5] | log2 fold change [6] | log2 fold change [7] | log2 fold change [8] | log2 fold change [9] | log2 fold change [10] | log2 fold change [11] | log2 fold change [12] | log2 fold change [13] | log2 fold change [14] | log2 fold change [15] | log2 fold change [16] | log2 fold change [17] | log2 fold change [18] | log2 fold change [19] | log2 fold change [20] |
| --- | --- | --- | --- | --- | --- | --- | --- | --- | --- | --- | --- | --- | --- | --- | --- | --- | --- | --- | --- | --- |
| CHPF2 (UniProt Q9P2E5) | inactive: -0.024 | inactive: 0.123 | inactive: -0.053 | inactive: -0.096 | inactive: 0.116 | inactive: -0.037 | inactive: 0.009 | inactive: -0.118 | inactive: -0.077 | inactive: -0.019 | inactive: -0.011 | inactive: -0.021 | inactive: -0.069 | inactive: 0.065 | inactive: 0.028 | inactive: 0.053 | inactive: 0.176 | inactive: 0.123 |  |  |
| CLSTN1 (UniProt O94985) | inactive: -0.197 | inactive: 0.03 | inactive: -0.128 |  |  | inactive: -0.239 | inactive: 0.016 |  | inactive: 0.18 | inactive: 0.125 |  |  |  | inactive: 0.244 |  | inactive: 0.069 | inactive: -0.14 | inactive: -0.273 | inactive: -0.19 | inactive: 0.241 |
| CNIH4 (UniProt Q9P003) | inactive: 0.076 | inactive: -0.049 | inactive: 0.147 |  | inactive: -0.051 | inactive: 0.223 | inactive: -0.082 | inactive: 0.1 | inactive: -0.054 | inactive: -0.107 | inactive: 0.033 |  | inactive: 0 |  | inactive: -0.033 | inactive: -0.107 | inactive: -0.067 |  | inactive: -0.102 | inactive: 0.028 |
| CNOT11 (UniProt Q9UKZ1) | inactive: 0.063 | inactive: -0.009 |  | inactive: -0.025 | inactive: 0.002 |  | inactive: -0.021 | inactive: -0.009 | inactive: 0.078 |  | inactive: 0.018 | inactive: -0.153 | inactive: -0.045 |  | inactive: -0.072 | inactive: -0.034 | inactive: 0.115 |  | inactive: -0.021 | inactive: -0.133 |
| COG4 (UniProt Q9H9E3) | inactive: 0.118 | inactive: 0.013 |  | inactive: 0.292 | inactive: 0.115 |  |  | inactive: 0.006 |  |  | inactive: -0.19 | inactive: -0.222 | inactive: -0.049 | inactive: 0.018 | inactive: 0.129 |  | inactive: 0.087 | inactive: 0.021 | inactive: -0.177 |  |
| COIL (UniProt P38432) | inactive: 0.132 | inactive: -0.024 | inactive: -0.028 | inactive: 0 |  | inactive: -0.124 |  | inactive: -0.057 | inactive: 0 | inactive: 0.107 | inactive: 0.126 | inactive: -0.033 | inactive: 0.055 |  |  | inactive: 0.165 | inactive: 0.043 |  |  | inactive: 0.01 |
| COG2 (UniProt Q14746) | inactive: -0.064 | inactive: 0 |  | inactive: 0.432 |  |  | inactive: -0.59 | inactive: 0.048 |  |  | inactive: -0.357 | inactive: 0.008 |  |  |  |  | inactive: 0.302 |  | inactive: 0.096 | inactive: -0.173 |
| CLEC3B (UniProt P05452) | inactive: -0.275 | inactive: 0.242 | inactive: 0.255 | inactive: 0.071 | inactive: 0.202 | inactive: -0.027 | inactive: -0.396 | inactive: -0.139 | inactive: -0.115 | inactive: -0.126 | inactive: -0.154 | inactive: -0.62 | inactive: -0.272 |  | inactive: -0.166 | inactive: 0.098 | inactive: 0.323 |  |  | inactive: -0.099 |
| CLN5 (UniProt O75503) | inactive: 0.031 |  | inactive: 0.058 | inactive: 0.012 |  | inactive: 0.104 | inactive: -0.54 | inactive: -0.17 | inactive: 0.06 | active: -1.25 | inactive: -0.001 | inactive: 0.014 |  | inactive: -0.183 |  |  | inactive: 0.139 | active: -0.834 | inactive: 0.068 |  |
| CHST2 (UniProt Q9Y4C5) | inactive: -0.024 |  | inactive: 0.055 | inactive: 0.023 |  | inactive: -0.118 | inactive: 0.031 | inactive: 0.006 | inactive: -0.03 | inactive: -0.033 | inactive: -0.086 | inactive: 0.134 | inactive: -0.045 |  |  | inactive: 0.068 | inactive: -0.115 |  | inactive: -0.034 |  |
| CNN1 (UniProt P51911) | inactive: -0.068 |  | inactive: -0.1 | inactive: -0.029 | inactive: 0.056 | inactive: -0.042 | inactive: -0.012 |  |  | inactive: -0.066 | inactive: -0.066 | inactive: -0.015 |  | inactive: -0.403 | inactive: -0.007 |  |  | inactive: -0.192 |  | inactive: -0.049 |
| CNPY4 (UniProt Q8N129) | inactive: 0.002 | inactive: 0.002 | inactive: -0.028 |  | inactive: 0.017 | inactive: -0.052 | inactive: -0.057 | inactive: 0.052 | inactive: 0.026 | inactive: 0.05 | inactive: 0.066 |  | inactive: 0.037 | inactive: -0.045 | inactive: 0.003 | inactive: 0.05 | inactive: 0.016 | inactive: -0.066 |  |  |
| CLIP1 isoform 2 (UniProt P30622) | inactive: -0.024 | inactive: 0.081 | inactive: 0.01 | inactive: -0.008 | inactive: -0.032 | inactive: -0.018 | inactive: -0.036 | inactive: 0.014 | inactive: 0.054 | inactive: 0.004 | inactive: -0.035 | inactive: -0.07 | inactive: 0.051 | inactive: -0.018 | inactive: 0.005 | inactive: -0.047 |  | inactive: -0.268 |  | inactive: 0.098 |
| CHPT1 (UniProt Q8WUD6) | inactive: 0.088 | inactive: 0.055 | inactive: 0.132 | inactive: 0.114 |  | inactive: 0.051 | inactive: 0.047 |  |  | inactive: -0.228 | inactive: 0.119 | inactive: -0.176 |  | inactive: -0.042 |  |  | inactive: 0.047 | active: -0.79 |  | inactive: -0.324 |
| CNBP (UniProt P62633) | inactive: 0.057 |  | inactive: -0.074 |  |  | inactive: -0.045 | inactive: 0.03 | inactive: 0.1 | inactive: -0.075 | inactive: 0.104 | inactive: -0.055 |  | inactive: 0.033 | inactive: 0.044 |  | inactive: -0.075 | inactive: -0.013 | inactive: 0.17 |  | inactive: 0.021 |
| CMYA5 (UniProt Q8N3K9) | inactive: -0.343 | inactive: -0.014 |  |  |  |  | inactive: -0.005 |  | inactive: 0.077 |  | inactive: -0.051 |  |  |  |  | inactive: -0.026 |  |  |  |  |
| COG1 (UniProt Q8WTW3) | inactive: 0.02 | inactive: -0.065 | inactive: -0.119 |  |  | inactive: -0.058 |  |  |  | inactive: -0.025 |  |  |  | inactive: 0.037 |  |  | inactive: 0.159 | inactive: -0.044 | inactive: -0.298 |  |
| CLN6 (UniProt Q9NWW5) | inactive: 0.038 | inactive: 0.014 | inactive: -0.014 | inactive: 0.045 | inactive: 0.199 | inactive: 0.071 | inactive: -0.001 |  | inactive: 0.061 | inactive: 0.106 | inactive: -0.034 | inactive: 0.062 |  |  | inactive: 0.007 | inactive: 0.006 |  |  |  | inactive: -0.078 |
| CLN8 (UniProt Q9UBY8) | inactive: -0.018 | inactive: 0.081 | inactive: -0.085 |  | inactive: -0.001 | inactive: -0.109 | inactive: -0.132 | inactive: -0.086 | inactive: 0.051 | inactive: 0.001 | inactive: 0.077 |  |  | inactive: 0.005 | inactive: 0.145 |  | inactive: 0.135 | inactive: 0.191 |  | inactive: 0.069 |
| COL14A1 (UniProt Q05707) | inactive: -0.038 |  | inactive: 0.019 | inactive: 0.104 | inactive: 0.16 | inactive: -0.026 | inactive: -0.079 |  |  | inactive: -0.043 | inactive: 0.039 | inactive: 0 |  | inactive: 0.053 | inactive: -0.145 |  | inactive: 0.139 | inactive: 0.031 | inactive: 0.183 | inactive: 0.018 |
| CNOT6 (UniProt Q9ULM6) | inactive: -0.075 | inactive: -0.067 |  |  | inactive: 0.04 |  | inactive: 0.011 | inactive: -0.018 | inactive: -0.012 |  | inactive: 0.024 |  | inactive: -0.377 | inactive: -0.173 | inactive: -0.023 | inactive: -0.121 | inactive: 0.058 | inactive: -0.008 |  | inactive: 0.039 |

Two entries picked at random from those above, as already listed:

| Target | log2 fold change [1] | log2 fold change [2] | log2 fold change [3] | log2 fold change [4] | log2 fold change [5] | log2 fold change [6] | log2 fold change [7] | log2 fold change [8] | log2 fold change [9] | log2 fold change [10] | log2 fold change [11] | log2 fold change [12] | log2 fold change [13] | log2 fold change [14] | log2 fold change [15] | log2 fold change [16] | log2 fold change [17] | log2 fold change [18] | log2 fold change [19] | log2 fold change [20] |
| --- | --- | --- | --- | --- | --- | --- | --- | --- | --- | --- | --- | --- | --- | --- | --- | --- | --- | --- | --- | --- |
| CHPT1 (UniProt Q8WUD6) | inactive: 0.088 | inactive: 0.055 | inactive: 0.132 | inactive: 0.114 |  | inactive: 0.051 | inactive: 0.047 |  |  | inactive: -0.228 | inactive: 0.119 | inactive: -0.176 |  | inactive: -0.042 |  |  | inactive: 0.047 | active: -0.79 |  | inactive: -0.324 |
| CLSTN1 (UniProt O94985) | inactive: -0.197 | inactive: 0.03 | inactive: -0.128 |  |  | inactive: -0.239 | inactive: 0.016 |  | inactive: 0.18 | inactive: 0.125 |  |  |  | inactive: 0.244 |  | inactive: 0.069 | inactive: -0.14 | inactive: -0.273 | inactive: -0.19 | inactive: 0.241 |
